Test results as given in PubChem BioAssay AID2662 (National Center for Advancing Translational Sciences (NCATS), 2010).
Among all 290,000 compounds or so, about 110 (0.038%) were called active. Inconclusive results, whose numbers are uncertain, are shown with a selection of clear calls. The call rests on the fitted dose curve; in most records, active means well fitted inhibition curve with a large enough effect in the polarisation, with a control signal flat (not every such curve was filed as active); inconclusive means small, poorly fitted or top-dose-only effect, or effect the other way, or a change in a side signal; inactive means no such curve, though single readings can be large or run the other way; the % refers to the polarisation. Potencies of inconclusive entries are doubtful fits and often do not repeat. A note “side channel” means that the fit belongs to a control or component signal, not to the main read-out.

Protein sequences, listed by entry. Tags and fused reporters are not part of them.
UniProt Q03164, whole entry, looked up: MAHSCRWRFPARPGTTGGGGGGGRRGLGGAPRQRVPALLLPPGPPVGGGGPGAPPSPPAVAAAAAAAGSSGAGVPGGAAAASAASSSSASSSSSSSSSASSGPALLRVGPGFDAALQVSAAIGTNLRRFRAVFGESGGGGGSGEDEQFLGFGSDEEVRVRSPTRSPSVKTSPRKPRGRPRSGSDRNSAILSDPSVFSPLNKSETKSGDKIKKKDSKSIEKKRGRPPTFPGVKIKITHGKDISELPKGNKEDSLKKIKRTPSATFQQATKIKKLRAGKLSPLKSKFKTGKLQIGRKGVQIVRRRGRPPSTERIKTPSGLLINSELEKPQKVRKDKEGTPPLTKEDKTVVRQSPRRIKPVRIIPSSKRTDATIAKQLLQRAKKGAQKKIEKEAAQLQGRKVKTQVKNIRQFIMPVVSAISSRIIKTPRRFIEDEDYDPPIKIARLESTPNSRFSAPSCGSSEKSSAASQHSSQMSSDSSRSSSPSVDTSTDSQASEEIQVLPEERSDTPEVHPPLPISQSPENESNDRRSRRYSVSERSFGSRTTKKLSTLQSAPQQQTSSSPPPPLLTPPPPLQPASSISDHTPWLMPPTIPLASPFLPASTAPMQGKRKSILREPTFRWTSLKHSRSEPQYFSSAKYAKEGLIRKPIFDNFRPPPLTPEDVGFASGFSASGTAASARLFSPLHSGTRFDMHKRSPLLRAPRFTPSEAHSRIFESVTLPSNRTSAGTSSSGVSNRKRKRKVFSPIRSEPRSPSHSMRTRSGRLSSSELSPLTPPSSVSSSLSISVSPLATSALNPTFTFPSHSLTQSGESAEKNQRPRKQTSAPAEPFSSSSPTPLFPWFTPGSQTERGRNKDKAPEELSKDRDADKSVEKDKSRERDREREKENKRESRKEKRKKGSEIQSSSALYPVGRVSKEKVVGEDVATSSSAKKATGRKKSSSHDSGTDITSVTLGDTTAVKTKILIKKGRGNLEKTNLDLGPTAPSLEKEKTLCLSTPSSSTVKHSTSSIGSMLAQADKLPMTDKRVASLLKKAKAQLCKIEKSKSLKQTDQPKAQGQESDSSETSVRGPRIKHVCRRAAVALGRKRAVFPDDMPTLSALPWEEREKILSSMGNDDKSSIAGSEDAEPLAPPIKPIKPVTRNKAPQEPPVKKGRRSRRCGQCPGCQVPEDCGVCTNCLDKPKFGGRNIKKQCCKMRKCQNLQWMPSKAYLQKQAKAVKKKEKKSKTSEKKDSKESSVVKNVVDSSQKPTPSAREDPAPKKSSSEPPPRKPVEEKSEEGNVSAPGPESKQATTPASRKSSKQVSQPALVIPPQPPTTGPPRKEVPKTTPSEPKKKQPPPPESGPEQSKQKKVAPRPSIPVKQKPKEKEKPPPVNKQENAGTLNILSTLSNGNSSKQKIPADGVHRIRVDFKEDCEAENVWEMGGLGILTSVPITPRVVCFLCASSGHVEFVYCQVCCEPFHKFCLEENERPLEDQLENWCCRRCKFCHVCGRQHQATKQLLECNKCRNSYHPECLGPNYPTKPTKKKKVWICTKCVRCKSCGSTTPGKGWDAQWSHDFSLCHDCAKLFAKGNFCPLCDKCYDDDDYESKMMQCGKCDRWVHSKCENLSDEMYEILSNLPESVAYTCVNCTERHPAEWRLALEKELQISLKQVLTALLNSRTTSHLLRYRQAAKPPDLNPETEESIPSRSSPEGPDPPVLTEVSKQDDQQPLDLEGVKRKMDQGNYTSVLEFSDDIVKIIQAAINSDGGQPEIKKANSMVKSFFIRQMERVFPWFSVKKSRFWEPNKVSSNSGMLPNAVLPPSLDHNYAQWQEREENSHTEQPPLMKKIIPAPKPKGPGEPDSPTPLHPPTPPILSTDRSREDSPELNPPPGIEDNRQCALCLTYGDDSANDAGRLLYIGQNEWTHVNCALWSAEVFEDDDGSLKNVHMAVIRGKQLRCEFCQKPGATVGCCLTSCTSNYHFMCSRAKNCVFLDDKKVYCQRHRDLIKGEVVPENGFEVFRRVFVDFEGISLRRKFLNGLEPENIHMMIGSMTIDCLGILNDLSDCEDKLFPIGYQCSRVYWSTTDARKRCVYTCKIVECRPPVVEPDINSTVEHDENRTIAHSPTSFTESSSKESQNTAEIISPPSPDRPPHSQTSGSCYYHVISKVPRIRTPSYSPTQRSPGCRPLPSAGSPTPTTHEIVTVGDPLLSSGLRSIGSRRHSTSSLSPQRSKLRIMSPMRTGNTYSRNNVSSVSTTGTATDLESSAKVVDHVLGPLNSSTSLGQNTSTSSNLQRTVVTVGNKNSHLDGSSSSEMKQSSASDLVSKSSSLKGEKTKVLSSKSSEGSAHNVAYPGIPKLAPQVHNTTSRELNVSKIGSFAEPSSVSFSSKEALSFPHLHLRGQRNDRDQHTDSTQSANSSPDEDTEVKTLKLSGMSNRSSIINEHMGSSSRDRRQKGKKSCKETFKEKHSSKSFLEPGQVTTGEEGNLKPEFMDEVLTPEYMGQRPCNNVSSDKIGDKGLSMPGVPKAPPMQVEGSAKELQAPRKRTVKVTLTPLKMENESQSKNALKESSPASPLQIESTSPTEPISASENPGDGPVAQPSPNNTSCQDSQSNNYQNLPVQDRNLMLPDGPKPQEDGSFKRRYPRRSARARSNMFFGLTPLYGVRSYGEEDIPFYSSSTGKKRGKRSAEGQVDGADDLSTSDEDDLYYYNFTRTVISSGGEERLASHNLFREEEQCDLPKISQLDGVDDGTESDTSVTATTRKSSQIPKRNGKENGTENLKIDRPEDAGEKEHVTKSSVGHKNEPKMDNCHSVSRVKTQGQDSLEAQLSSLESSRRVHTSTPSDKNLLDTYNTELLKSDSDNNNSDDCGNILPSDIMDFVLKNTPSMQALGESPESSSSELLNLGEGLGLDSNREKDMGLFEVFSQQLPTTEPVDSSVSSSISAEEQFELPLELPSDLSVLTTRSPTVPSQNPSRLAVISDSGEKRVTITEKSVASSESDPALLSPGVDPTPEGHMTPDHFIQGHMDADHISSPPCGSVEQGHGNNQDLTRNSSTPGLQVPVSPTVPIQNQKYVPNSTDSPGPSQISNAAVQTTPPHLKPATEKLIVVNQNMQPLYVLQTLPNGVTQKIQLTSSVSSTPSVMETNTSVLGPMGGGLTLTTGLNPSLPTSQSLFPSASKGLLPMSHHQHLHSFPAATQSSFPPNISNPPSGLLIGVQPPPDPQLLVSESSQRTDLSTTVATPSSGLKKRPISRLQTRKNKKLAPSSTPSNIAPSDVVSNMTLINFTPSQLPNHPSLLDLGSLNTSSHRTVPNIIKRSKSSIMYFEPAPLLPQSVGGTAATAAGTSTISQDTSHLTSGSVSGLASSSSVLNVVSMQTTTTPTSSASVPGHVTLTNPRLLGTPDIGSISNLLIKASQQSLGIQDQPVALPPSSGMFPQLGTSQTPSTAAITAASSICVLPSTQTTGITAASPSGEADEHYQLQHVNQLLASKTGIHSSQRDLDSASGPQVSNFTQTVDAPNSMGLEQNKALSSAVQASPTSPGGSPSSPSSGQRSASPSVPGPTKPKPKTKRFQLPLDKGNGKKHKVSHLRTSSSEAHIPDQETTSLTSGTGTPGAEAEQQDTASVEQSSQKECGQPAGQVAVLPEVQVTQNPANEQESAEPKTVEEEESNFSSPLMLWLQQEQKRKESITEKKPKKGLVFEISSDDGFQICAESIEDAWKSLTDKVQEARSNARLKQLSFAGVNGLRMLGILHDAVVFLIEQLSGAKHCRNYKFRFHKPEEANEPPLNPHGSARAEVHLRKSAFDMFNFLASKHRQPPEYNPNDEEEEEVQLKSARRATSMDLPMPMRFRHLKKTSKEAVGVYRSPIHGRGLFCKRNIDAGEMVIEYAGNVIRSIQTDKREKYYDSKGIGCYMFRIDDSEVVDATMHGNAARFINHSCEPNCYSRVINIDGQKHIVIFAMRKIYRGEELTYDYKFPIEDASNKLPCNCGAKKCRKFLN

target: Histone-lysine N-methyltransferase 2A (Homo sapiens) (UniProt Q03164); assay: qHTS Fluorescence Polarization Assay for Inhibitors of MLL CXXC domain - DNA interaction; conditions: MLL-CXXC / FITC-HOXA9 DNA fluorescence polarization; series mostly up to 115 µM
Method in brief: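 Fluorescence polarization: 7 uM MLL-CXXC (stock) preincubated 5 min with compounds, then 50 nM fluorescein-HOX-A9 DNA (stock) added; 30 min ambient. Buffer 50 mM Tris-HCl pH 7.5, 50 mM NaCl, 1 mM DTT, 0.05% BSA.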
Potency means the concentration at half of the fitted maximal effect.

| Structure (SMILES) | Potency |
| --- | --- |
| CCCCN(CC)Cc1ccc(CNC(=S)Nc2c(C)cc(C)cc2C)o1 | inconclusive: 1.58 µM [fluorescent, side channel, full curve] |
| COC(=O)c1c(N=CN(C)C)c(C#N)c2n1CCCC2 | inconclusive: 70.8 µM [fluorescent, side channel, single point] |
| CCNC(=O)c1ccccc1SCc1ccccc1 | inconclusive: 31.6 µM [fluorescent, side channel, partial curve] |
| O=C(CNC(=O)c1cccc(Cl)c1)N/N=C/C=C/c1ccccc1 | inconclusive: 1 µM [fluorescent, side channel, full curve, poor fit] |
| O=C(N/C=C/c1ccco1)OCc1ccccc1 | inconclusive: 8.91 µM [fluorescent, side channel, partial curve] |
| NC(=O)CCCCC1CCSS1 (configuration not stated) | inconclusive: 89.1 µM [inhibitor, single point] |
| O=S(=O)(Nc1cccc(-c2cn3cccnc3n2)c1)c1ccccc1 | inconclusive: 1.41 µM [fluorescent, side channel, full curve] |
| Cc1ccccc1-c1nnc(-c2ccccc2)o1 | inactive |
| CCN(c1ccc(N=Cc2c(O)n(Cc3ccc(OC)cc3)c(=O)c3ccccc23)cc1)C(C)C | inconclusive: 7.94 µM [fluorescent, side channel, full curve] |
| CCOc1cccc2cc(C(=O)NCc3ccccc3)c(=N)oc12 | inconclusive: 8.91 µM [fluorescent, side channel, partial curve] |
| CCOC(=O)c1c(NC(=O)C2CCCO2)sc(C(N)=O)c1C (configuration not stated) | inactive |
| CCS(=O)(=O)Nc1cccc(C2=NN(S(C)(=O)=O)C(c3cccs3)C2)c1 (configuration not stated) | inconclusive: 35.5 µM [fluorescent, side channel, single point] |
| O=C(Nc1c(-c2ccccc2)nc2ccccn12)c1cccc(F)c1 | inconclusive: 8.91 µM [inhibitor, single point] |
| COc1ccc(CNC(=O)Nc2cccs2)cc1OC | inactive |
| O=C(Nc1ccc2c(c1)C(=O)NC2=O)c1ccccc1 | inactive |
| O=C(CN1CCN(Cc2ccccc2)CC1)N/N=C/C=C/c1ccccc1[N+](=O)[O-] | inactive |
| CCN(CC)CCCNC(=O)c1cc2c(=O)[nH]c3ccc(C)cc3c2s1 | inconclusive: 89.1 µM [inhibitor, single point] |
| Brc1ccccc1/C=N/Nc1nc2ccccc2o1 | inconclusive: 89.1 µM [fluorescent, side channel, single point] |
| Cc1cc(OCC(O)CN)ccc1Cl (configuration not stated) | inconclusive: 1.41 µM [fluorescent, side channel, full curve] |
| COc1ccc(-c2nn(C)c(=O)c3ccccc23)cc1NS(C)(=O)=O | inconclusive: 6.31 µM [fluorescent, side channel, single point] |
| COc1ccc(Cl)cc1NC(=O)CNc1ccc(F)cc1C | inconclusive: 14.1 µM [inhibitor, single point] |

| Structure (SMILES) | Potency |
| --- | --- |
| COc1ccc(-c2nnc(-c3ccc(OCC(C)C)cc3)o2)cc1 | inactive |
| CCOC(=O)c1nnc(-c2ccccc2)nc1Sc1ccccc1Cl | inactive |
| CC(C)NC(=O)NC(=O)CN1c2cccc3cccc(c23)S1(=O)=O | inconclusive: 5.62 µM [fluorescent, side channel, full curve, poor fit] |
| Cc1ccc(/C=C2/SC(=Nc3ccc(F)cc3)NC2=O)s1 | inconclusive: 56.2 µM [fluorescent, side channel, single point] |
| O=C(O)c1cccc(NC(=O)c2ccc3c(c2)C(=O)N(c2ccccc2)C3=O)c1 | inactive |
| COc1ccc(C(=O)N/N=C/c2ccc(OC)c(COc3ccc(F)cc3F)c2)cc1 | inconclusive: 12.6 µM [fluorescent, side channel, single point] |
| O=C(C1=NN(c2ccccc2)C2C(=O)N(c3cccc(Cl)c3)C(=O)C12)c1ccccc1 (configuration not stated) | inconclusive: 63.1 µM [fluorescent, side channel, single point] |
| CCOc1ccc(C2OC34CCCCC3C(C#N)(C#N)C2(C#N)C(=N)O4)cc1OC (configuration not stated) | active: 25.1 µM |
| NC(=O)c1ccc(NC(=O)CSC2=Nc3ccccc3C3CC=NN23)cc1 (configuration not stated) | inconclusive: 79.4 µM [quencher, side channel, single point] |
| CC(=O)c1sc2nc(-c3ccco3)ccc2c1N | inconclusive: 31.6 µM [inhibitor, single point] |
| S=c1[nH]nc(-c2ccccc2)n1/N=C/c1ccc(Cl)cc1 | inactive |
| CCCCOc1cccc(C(=O)Nc2ccc(S(=O)(=O)Nc3nnc(CC)s3)cc2)c1 | inconclusive: 5.62 µM [inhibitor, full curve, poor fit] |
| Cc1nnc(NN)n(N)c1=O | inactive |
| CC(C)c1ccc2c(c1)CCC1C(C)(CN)CCCC21C (configuration not stated) | inactive |
| COc1ccc(CCNC(=O)c2ccc(OCC(=O)N3CCOCC3)c(OC)c2)cc1OC | inconclusive: 15.8 µM [quencher, side channel, single point] |
| CCCNC(=O)CN(C)S(=O)(=O)c1ccc(F)cc1 | inconclusive: 15.8 µM [fluorescent, side channel, full curve] |
| Cc1ccc(C(=O)c2c(C)oc3c2C(=O)C(=O)c2ccccc2-3)cc1 | inconclusive: 31.6 µM [inhibitor, single point] |
| COc1cccc(/C=C/C(=O)N2CC(C)OC(C)C2)c1OC (configuration not stated) | inconclusive: 50.1 µM [fluorescent, side channel, partial curve] |
| O=c1oc(-c2ccccc2)nc2c1cnn2-c1ccccc1 | inconclusive: 63.1 µM [inhibitor, single point] |
| O=C(O)c1cc(-c2ccccc2Cl)n(-c2ccc(F)cc2)n1 | inconclusive: 10 µM [fluorescent, side channel, single point] |
| COCCNC(=O)c1c(N)n(-c2ccccc2)c2nc3ccccc3nc12 | inactive |

Copied from the list:
NC(=O)c1ccc(NC(=O)CSC2=Nc3ccccc3C3CC=NN23)cc1 (configuration not stated) – Potency: inconclusive: 79.4 µM [quencher, side channel, single point]
Cc1nnc(NN)n(N)c1=O – Potency: inactive
